Source: PubChem BioAssay AID1347423 (Functional Genomics Laboratory (NCATS/FGL), 2020)
In all, about 52,000 sequences went through this assay and about 210 (0.4%) were called active.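 Rule for the calls: active = gene whose silencing raises cell survival under the drug, median off-target-corrected z-score across its silencing RNAs 2 or more; inactive = the rest.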 The list shows a part of the results.

Test: Resistance to Poly (ADP-Ribose) Polymerase inhibitor: Gene Identification via Genome-wide siRNA Screen
Details: mouse BRCA2 R2336H ES cells, olaparib, CellTiter-Glo viability; stronger effect = higher value
Outline: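 Mouse BRCA2 R2336H ES cells were reverse-transfected with siRNA (20 nM final), treated at 48 h with 500 nM olaparib, and read by CellTiter-Glo after 72 h. Scores: MAD-based z per siRNA, median per gene, seed off-target correction.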

Sequence | z-score
GGCCUUAGGAAUCAAGUUGTT against 9530053A07Rik | inactive: 0.596
GGGAUAUUGGAGCAAAAAATT against BC021875 | inactive: 0.489
GGUUGUAUGUUGUGUGUUUTT against 0910001A06Rik | inactive: 0.869
GGCGACUGUGCAAUUUCAUTT against Ceacam1 | inactive: -0.7
GGCCAACAAUUUGUCUGUCTT against Tgn | inactive: -0.346
GGAAGACUUUCUGGACAUATT against Sgk2 | inactive: 0.152
GGACUUUAAGCCAUUACGATT against Cltb | inactive: -0.328
GGGCUGAUAAUGUUAGCUCTT against Olfr161 | inactive: -1.23
GGCAAGCACAAUGAUCAUUTT against D030016E14Rik | inactive: -2.36
CGUGAACUAUGAUUGGAUATT against Gbe1 | inactive: 0.76
GCCAAGUACUCGUUUCCACTT against Wtap | inactive: 0.441
GGAAAUGCCAGGAUGGAUCTT against AF366264 | inactive: 0.622
GGAGAAACUUCAACUCUUATT against Resp18 | inactive: 0.73
GGAUCUCAUAAAGGAGGCUTT against Prkg1 | inactive: -0.485
CCAGAGCUAAAAGAAAAGATT against Elovl6 | inactive: 0.473
GGGAAUGUUUUCAAAUUCCTT against 9030616D13Rik | inactive: -0.923
CGCAUAUCAGCAGUGUAGATT against Slc26a11 | inactive: -0.279
GGAGAAGCAGAAGAUGUAUTT against Stk11 | inactive: 0.322
CCUGUAAUGCACUCUCCUATT against Skiip | inactive: -1.86
GGGAACCUUUUCUAAGUUCTT against 9230112E08Rik | inactive: 0.812
CCGGUCAAAAUUGAAAAGGTT against Bves | inactive: 0.357
GGGUGUCUAUGAUUCUACATT against Add1 | inactive: -0.458
GGUUCAAAGUUCUAGCUAATT against Adss2 | inactive: -1.96
GGCAUAACUGAUCAUACGCTT against Foxp3 | inactive: 1.06
GGUAUUGGAAAGUAGAAACTT against MGC30332 | inactive: 0.688
GCUGUAAUUCCUAAGUUAUTT against Ubxd1 | inactive: 0.0518

Sequence | z-score
GGAAGAUGAGGACACCAUGTT against 2610027C15Rik | inactive: -0.324
GCGCAUUCUGAUAUUUUCUTT against E330009J07Rik | inactive: 0.46
GGUAUUUUGAUGUUGGACUTT against 2810432O22Rik | inactive: 0.227
GGUUUAGAACUGGUAGAGCTT against Asgr1 | inactive: 1.43
GGAAGUCAAGUACUGUAGCTT against Usp16 | inactive: -0.604
GGCCAACUUUUUUCACCCATT against Git1 | inactive: -0.659
GGAACAUUCUCUCCUUAUGTT against Ctps | inactive: -1.73
GGGUCACCAAUCCCAUCAATT against Nags | inactive: 0.87
CGCAAACAAACCUUAACAGTT against Gm50 | inactive: -0.615
GGACCUGAAGGCUGAAAUUTT against Ing4 | inactive: 0.644
CCCAAGAGUGAGAUGACCCTT against Snrpd2 | inactive: -1.75
CCUACAUCAGGUCAGCAAGTT against 2610012O22Rik | inactive: 0.799
GGUAAUGAAAAGCAUUGAATT against Epha1 | inactive: -0.592
GGACCAUAAGCGACCCAAATT against Lmx1a | inactive: 0.367
GGAAGUCAAGAUCUCACCUTT against Lrrc25 | inactive: -2.5
GGAGUACGAAGACUUCUCUTT against 5730557B15Rik | inactive: 0.361
GGCCCUGAACUGGUUUUGUTT against Osbpl10 | inactive: -0.759
GGCAGGUGUAAAAUGUAAATT against Hpgd | inactive: 0.261
GGAUGGUCCAUGUCACAAATT against 4933425F03Rik | inactive: -0.791
GGAAGCAGUGGAGAAACCATT against Rfc4 | inactive: -2.91
GGGAGAUGAUUAGUUCAUUTT against Mad1l1 | inactive: -0.473
AACCGUUAUUAAAAGUGGGTT against Spt1 | inactive: -0.412
GAUCUAAGAAUGCCUGUGGTT against Lzp-s | inactive: -1.63
GGUCCAACAUGUCUACCCATT against Rfx3 | inactive: -0.484
GGUCUGAGCUUCCAAUAACTT against Dp1 | inactive: 0.25
GGAUGUGCGGAACUUUAAGTT against Ccr7 | inactive: -1.46

4 entries from above, with each value named.
GGUUGUAUGUUGUGUGUUUTT against 0910001A06Rik
  z-score: inactive: 0.869
GGCGACUGUGCAAUUUCAUTT against Ceacam1
  z-score: inactive: -0.7
GGCCAACAAUUUGUCUGUCTT against Tgn
  z-score: inactive: -0.346
GGAAGACUUUCUGGACAUATT against Sgk2
  z-score: inactive: 0.152

Further records

Sequence | z-score
CGAGUGACCAAAAUUUGGATT against 4930458L03Rik | inactive: 0.958
GACAGUGAAGGCUUGCCAUTT against 1700019M22Rik | inactive: 0.831
CGUGCUUAGCAAUCUGAAUTT against Bcl6b | inactive: 0.895
GCGAAAUCAUGACAAAUUCTT against Tulp3 | inactive: -0.0443
CCCGGUUCUUAGGUUUGUATT against BC022765 | inactive: -1.83
GGCAAAAGGCACUUUUGGATT against Ddc8 | inactive: 1.19
GCAUUACGGCGUGUUCACCTT against Nr2f6 | inactive: -0.56
GGUUCCUAGGUUUUAGAAATT against Olfr631 | inactive: -1.12
GGCCAGACAAAUGAUGCCATT against Slc25a30 | inactive: -0.303
GGGUGUUCAUAAAUGGUAUTT against Grb2 | inactive: 0.492
GGAUUUUCACCGGAUAAAATT against 2410166I05Rik | inactive: -0.933
GGACAAGGAUGCAAUUAUCTT against 4833427G06Rik | inactive: -2.12
GGCUUAGCUUUUGUGAUUCTT against Olfr143 | inactive: 0.372
CCACCUAUGAAUUAACACATT against Sdk1 | inactive: 0.385
GGAAGGGCAAGUUAUGAAATT against Fgf14 | inactive: -0.178
CCAUGGAAGUUUGAACUUATT against 1700006C19Rik | inactive: -0.263
GCCGGAGGUUACAGCAAAGTT against Dmrt1 | inactive: -0.0996
GGAAAGUGAUUUUUGGAUCTT against Fpr-rs7 | inactive: -0.105
GCAUUGUGCUUUUGACAACTT against Abca15 | inactive: 0.654
GGGACAUUUCAGAUUGUAUTT against Thumpd1 | inactive: -1.33
CCAGAUGGUCAAUCAGGCATT against 1810056O20Rik | inactive: 0.65
CGAUUACACUAGCAAGAAATT against Bche | inactive: 0.147
GCUCCUACGUGUCAGCCUUTT against C230094B15Rik | inactive: 0.0603
GCUGGACCACUGCAAUAUUTT against Gsk3a | inactive: 0.868
CCUUGACCUUAAUGUCUUCTT against Fgf23 | inactive: -0.292
GGGAGAUCACCACCAUCCUTT against Bsx | inactive: -0.0161

Sequence | z-score
GGAGUAUGGAACAAGCCAGTT against Plxnb3 | inactive: -1.19
CCUCCUUGUGGCAUAAUGATT against 2600014C01Rik | inactive: -0.537
GGGAUUAUAGGGCGCAUUGTT against Olfr685 | inactive: -1.78
GGCGGUCUUUAUUUAGACATT against Dusp12 | inactive: -0.286
GGAACAUAACUCUUGUAUATT against Dhx35 | inactive: 0.4
CCCAACUCGGUUUUUUUCUTT against Olfr1037 | inactive: 1.17
GCUACGGAUGCUUUUCAAATT against Ube2i | inactive: -3.06
GGACACCUGAUUUUCUUCUTT against Slc41a3 | inactive: 0.496
GGCAGAGAAGGAGGCUAAGTT against Tcf7 | inactive: -0.579
GGAAAUGGGAAGUUUAAUCTT against Cdo1 | inactive: 0.543
GGUGUACAGUCUGUUCCGATT against Ltbp2 | inactive: -1.09
GGGAGUGUUUGAAUCUUUUTT against 2810475A17Rik | inactive: -0.0603
GCUUUUGAUAUUCCACGUUTT against Pole2 | inactive: -0.0546
GGAGAUUUCCUGUAACUUUTT against Osbpl3 | inactive: -1.36
GGAAAUGCCAUUUGAUUUGTT against Rfpl4 | inactive: -0.0205
GGGAUAGCUCUGCUCAGCATT against Olfr821 | inactive: -1.6
GGGACAAAGGUGUGAACUCTT against Dpysl4 | inactive: -0.733
GGCCGUCACUACUCUGAAATT against Mgst2 | inactive: 9.7e-05
GGAGUUAUGUUAUACCUCCTT against Dazl | inactive: -0.0649
GCUCAUGUAGGAUGUAUAUTT against Olfr146 | inactive: -1.95
GGCUAUUCGCUAUUGCCAUTT against Stk22c | inactive: 0.288
GGACUUCAACAAGACCAUCTT against 5430407P10Rik | inactive: 1.14
GCACUUGUCUUGAUUACAUTT against Fbxo4 | inactive: 0.42
GGUUGAUCUGCAUUUUAUGTT against Slc4a10 | inactive: -1.11
GGGAAGAAGAAAUACUGCGTT against Gzmg | inactive: 0.582
GCAGUUGUACUGCUAGAAATT against Oprl1 | inactive: 0.542

Copied from the list:
For z-score, GGAAAUGGGAAGUUUAAUCTT against Cdo1 is listed with inactive: 0.543
For z-score, GGUGUACAGUCUGUUCCGATT against Ltbp2 is listed with inactive: -1.09
For z-score, GGCUAUUCGCUAUUGCCAUTT against Stk22c is listed with inactive: 0.288
For z-score, GGGACAAAGGUGUGAACUCTT against Dpysl4 is listed with inactive: -0.733
